PubChem BioAssay AID1508597, Cure First, 2020

Aim: 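Survival screen with siRNA in ovarian cancer cells derived from patients, with or without rucaparib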 (primary screen)
System: human ovarian carcinoma lines grown from tumours: OCI-P5x (papillary serous) and OCI-C5x (clear cell)
Reagent: siRNA pool against human genes, 1.25 pmol siRNA per well
Timing: 72 h or 96 h, depending on the cell culture
Conditions: rucaparib 20 µM (about IC30) or vehicle, present until read-out
Measured: 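Luminescent ATP-based viability assay read 72 or 96 h after transfection, depending on culture, given as normalised percent viability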
Direction: viability, normalised: higher = more viable cells remaining
Active means: 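Active when normalised viability falls below 80 percent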
Meaning of the calls: active = viability under 80%; inactive = viability 80% or more
Here is a random part of about 2,100 reagents. 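Calls flag viability under 80% in either arm, not effects specific to rucaparib; the reference for percent is not stated.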 Not given: the 100% reference.

HDGFL3, rucaparib or vehicle Rucaparib, cell line OCI-C5x (clear cell), technical replicate 1
- viability, normalised (%): 45.5
- Outcome: active

HDGFL3, rucaparib or vehicle Rucaparib, cell line OCI-C5x (clear cell), technical replicate 2
- viability, normalised (%): 34.8
- Outcome: active

HDGFL3, rucaparib or vehicle Rucaparib, cell line OCI-C5x (clear cell), technical replicate 3
- viability, normalised (%): 46.3
- Outcome: active

HDGFL3, rucaparib or vehicle Rucaparib, cell line OCI-P5x (serous), technical replicate 1
- viability, normalised (%): 47.8
- Outcome: active

HDGFL3, rucaparib or vehicle Rucaparib, cell line OCI-P5x (serous), technical replicate 2
- viability, normalised (%): 58.7
- Outcome: active

HDGFL3, rucaparib or vehicle Rucaparib, cell line OCI-P5x (serous), technical replicate 3
- viability, normalised (%): 60.7
- Outcome: active

HDGFL3, rucaparib or vehicle Vehicle, cell line OCI-C5x (clear cell), technical replicate 1
- viability, normalised (%): 61.4
- Outcome: active

HDGFL3, rucaparib or vehicle Vehicle, cell line OCI-C5x (clear cell), technical replicate 2
- viability, normalised (%): 52.6
- Outcome: active

HDGFL3, rucaparib or vehicle Vehicle, cell line OCI-C5x (clear cell), technical replicate 3
- viability, normalised (%): 72.5
- Outcome: active

HDGFL3, rucaparib or vehicle Vehicle, cell line OCI-P5x (serous), technical replicate 1
- viability, normalised (%): 55.1
- Outcome: active

HDGFL3, rucaparib or vehicle Vehicle, cell line OCI-P5x (serous), technical replicate 2
- viability, normalised (%): 61.9
- Outcome: active

HDGFL3, rucaparib or vehicle Vehicle, cell line OCI-P5x (serous), technical replicate 3
- viability, normalised (%): 85.8
- Outcome: inactive

Already shown: entries from further up.
HDGFL3, rucaparib or vehicle Rucaparib, cell line OCI-C5x (clear cell), technical replicate 1
- viability, normalised (%): 45.5
- Outcome: active

HDGFL3, rucaparib or vehicle Rucaparib, cell line OCI-C5x (clear cell), technical replicate 2
- viability, normalised (%): 34.8
- Outcome: active

HDGFL3, rucaparib or vehicle Rucaparib, cell line OCI-C5x (clear cell), technical replicate 3
- viability, normalised (%): 46.3
- Outcome: active

The listing continues.
EYA4, rucaparib or vehicle Rucaparib, cell line OCI-C5x (clear cell), technical replicate 1
- viability, normalised (%): 41.1
- Outcome: active

EYA4, rucaparib or vehicle Rucaparib, cell line OCI-C5x (clear cell), technical replicate 2
- viability, normalised (%): 20.1
- Outcome: active

EYA4, rucaparib or vehicle Rucaparib, cell line OCI-C5x (clear cell), technical replicate 3
- viability, normalised (%): 37.2
- Outcome: active

EYA4, rucaparib or vehicle Rucaparib, cell line OCI-P5x (serous), technical replicate 1
- viability, normalised (%): 56.7
- Outcome: active

EYA4, rucaparib or vehicle Rucaparib, cell line OCI-P5x (serous), technical replicate 2
- viability, normalised (%): 59
- Outcome: active

EYA4, rucaparib or vehicle Rucaparib, cell line OCI-P5x (serous), technical replicate 3
- viability, normalised (%): 63.4
- Outcome: active

EYA4, rucaparib or vehicle Vehicle, cell line OCI-C5x (clear cell), technical replicate 1
- viability, normalised (%): 44.6
- Outcome: active

EYA4, rucaparib or vehicle Vehicle, cell line OCI-C5x (clear cell), technical replicate 2
- viability, normalised (%): 41
- Outcome: active

EYA4, rucaparib or vehicle Vehicle, cell line OCI-C5x (clear cell), technical replicate 3
- viability, normalised (%): 48
- Outcome: active

EYA4, rucaparib or vehicle Vehicle, cell line OCI-P5x (serous), technical replicate 1
- viability, normalised (%): 61.1
- Outcome: active

EYA4, rucaparib or vehicle Vehicle, cell line OCI-P5x (serous), technical replicate 2
- viability, normalised (%): 70.8
- Outcome: active

EYA4, rucaparib or vehicle Vehicle, cell line OCI-P5x (serous), technical replicate 3
- viability, normalised (%): 70.3
- Outcome: active

SAFB, rucaparib or vehicle Rucaparib, cell line OCI-C5x (clear cell), technical replicate 1
- viability, normalised (%): 65.7
- Outcome: active

SAFB, rucaparib or vehicle Rucaparib, cell line OCI-C5x (clear cell), technical replicate 2
- viability, normalised (%): 37.1
- Outcome: active

SAFB, rucaparib or vehicle Rucaparib, cell line OCI-C5x (clear cell), technical replicate 3
- viability, normalised (%): 43.4
- Outcome: active

SAFB, rucaparib or vehicle Rucaparib, cell line OCI-P5x (serous), technical replicate 1
- viability, normalised (%): 45.7
- Outcome: active

SAFB, rucaparib or vehicle Rucaparib, cell line OCI-P5x (serous), technical replicate 2
- viability, normalised (%): 45.1
- Outcome: active

SAFB, rucaparib or vehicle Rucaparib, cell line OCI-P5x (serous), technical replicate 3
- viability, normalised (%): 49.6
- Outcome: active

SAFB, rucaparib or vehicle Vehicle, cell line OCI-C5x (clear cell), technical replicate 1
- viability, normalised (%): 42
- Outcome: active

SAFB, rucaparib or vehicle Vehicle, cell line OCI-C5x (clear cell), technical replicate 2
- viability, normalised (%): 45.9
- Outcome: active

SAFB, rucaparib or vehicle Vehicle, cell line OCI-C5x (clear cell), technical replicate 3
- viability, normalised (%): 53.5
- Outcome: active

SAFB, rucaparib or vehicle Vehicle, cell line OCI-P5x (serous), technical replicate 1
- viability, normalised (%): 70.6
- Outcome: active

SAFB, rucaparib or vehicle Vehicle, cell line OCI-P5x (serous), technical replicate 2
- viability, normalised (%): 61.1
- Outcome: active

SAFB, rucaparib or vehicle Vehicle, cell line OCI-P5x (serous), technical replicate 3
- viability, normalised (%): 80.3
- Outcome: inactive
